These are yes or no findings as the source states them, for the method shown. For some of these results: A result given as binding can be weak or reduced; the word gives no strength.
Columns and labels:
Assay in all cases: western blot of human FXI/PK chimeras, non-reducing 10% polyacrylamide gel, detection with biotinylated AB023
[1] = target: A2 (FX/PK CHIMERAS)
[2] = target: A4* (FX/PK CHIMERAS)
[3] = target: A1 (FX/PK CHIMERAS)
[4] = target: A3 (FX/PK CHIMERAS)

B1: AB023, humanized anti-FXI monoclonal antibody (variant VH3/Vκ3, clone 3G3) (antibody, V domains shown)
VH: QVQLQESGPGLVKPSETLSITCTVSGFSLTGYGIYWVRQPPGKGLEWLGMIWGDGRTDYNSALKSRVTISKDNSKSQVSLKLSSVTAADTARYYCARDYYGSKDYWGQGTTVTVSS
VL: DIQMTQSPSSLSASVGDRVTITCKASQDVSTAVAWYQQKPGKAPKLLIYLTSYRNTGVPDRFSGSGSGTDFTFTISSLQPEDIAVYYCQQHYKTPYSFGGGTKVEIKR
notes: Human IgG4 with S241P (Kabat) hinge modification, kappa light chain; also called A13023; A8023
binding [1]: no binding | binding [2]: binds | binding [3]: binds | binding [4]: binds

Reference: US20220089777A1 (ARONORA, published 2022)
